Some results were stated once for a whole list of compounds, not compound by compound.
Experiments:
[1] = tested on: interleukin (IL)-4 production; experiment: Cytokine production from antigen sensitized spleen cells in mice (IL-4); type: cell-based, BALB/c mice; details: OVA sensitized mouse spleen cells, anti-mouse CD-3 antibody stimulation, 48 hours, test compounds 1-10 μg/ml
IL-5 production = experiment: Cytokine production from antigen sensitized spleen cells in mice (IL-5); type: cell-based, BALB/c mice; details: OVA sensitized mouse spleen cells, anti-mouse CD-3 antibody stimulation, 48 hours, test compounds 1-10 μg/ml

SMILES	Suppressive rate for cytokine production: IL-4 [1] [%]	Suppressive rate for cytokine production: IL-5 (IL-5 production) [%]
CCCCOc1ccc(CCC(=O)O)cc1-c1ccccc1 [Compound(01), 3-(2-butoxy-1,1′-biphenyl-5-yl)propionic acid]	≥ 50	≥ 50
O=C(O)CCc1ccc(OCC2CCCCC2)c(-c2ccccc2)c1 [Compound(07), 3-(2-cyclohexylmethyloxy-1,1′-biphenyl-5-yl)propionic Acid]	≥ 50	≥ 50
CCC(=O)COc1ccc(CCC(=O)O)cc1-c1ccccc1 [Compound(11), 3-[2-(2-oxobutyloxy)-1,1′-biphenyl-5-yl]propionic Acid]	≥ 50	≥ 50
CC(=O)Nc1cc(CCC(=O)O)cc(-c2ccccc2)c1OCC1CCCCC1 [Compound(17), 3-(3-acetylamino-2-cyclohexylmethyloxy-1,1′-biphenyl-5-yl)propionic Acid]	≥ 50	≥ 50
CS(=O)(=O)Nc1cc(CCC(=O)O)cc(-c2ccccc2)c1OCC1CCCCC1 [Compound(18), 3-(2-cyclohexylmethoxy-3-methylsulfonylamino-1,1′-biphenyl-5-yl)propionic Acid]	≥ 50	≥ 50
CN(C)C(=O)Nc1cc(CCC(=O)O)cc(-c2ccccc2)c1OCC1CCCCC1 [Compound(20), 3-(2-cyclohexylmethyloxy-3-(N,N-dimethylcarbamoyl)amino-1,1′-biphenyl-5-yl)propionic Acid]	≥ 50	≥ 50
NC(=O)Nc1cc(CCC(=O)O)cc(-c2ccccc2)c1OCC1CCCCC1 [Compound(22), 3-(3-carbamoylamino-2-cyclohexylmethyloxy-1,1′-biphenyl-5-yl)propionic Acid]	≥ 50	≥ 50
O=C(O)CCc1ccc(OCC2CCCCC2)c(-c2ccc(O)cc2)c1 [Compound(25), 3-(2-cyclohexylmethyloxy-4′-hydroxy-1,1′-biphenyl-5-yl)propionic Acid]	≥ 50	≥ 50
NC(=O)CCc1ccc(OCC2CCCCC2)c(-c2ccccc2)c1 [Compound(27), 3-(2-cyclohexylmethyloxy-1,1-biphenyl-5-yl)propionamide]	≥ 50	≥ 50
CCCCOc1ccc(CCCC(=O)O)cc1-c1ccccc1 [Compound(28), 4-(2-butoxy-1,1′-biphenyl-5-yl)butyric Acid]	≥ 50	≥ 50
